Values joined by “and” are separate entries in the source; they are usually repeats but may differ in a detail not shown here. Identical values can stand only once. The list shows a part of the results. Further columns of the screen follow, without active or inactive calls. Most of these compounds were active or inconclusive in the main read-out, so they are no random draw. The note in brackets gives the kind of curve behind each potency; many fits are weak.
Test: qHTS Assay for Lipid Storage Modulators in Drosophila S3 Cells;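 on cell number change: cells counted by Cell Tracker Red CMTPX staining in the red channel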
Conditions: BODIPY lipid droplet fluorescence, 18-24 h; for cell number change: measured here: cell count max response, cells fed with added oleic acid
Summary of the method: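 Drosophila S3 cells got compounds at several concentrations plus oleic acid (400 uM solution). Laser-scanning cytometry with 488 nm excitation read lipid droplets at 500-530 nm and cells at 575-640 nm. Percent activity was relative to 20 uM Triacsin C.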

[1] = measured here: cell number channel AC50, cells fed with added oleic acid
[2] = measured here: lipid fluorescence (Fed channel) AC50, cells fed with added oleic acid

Row | Structure (SMILES) | cell number change | AC50 [1] | AC50 [2]
1 | C/C(=N\Nc1nc(C)cc(C)n1)c1ccc(N2CCOCC2)cc1 | 24.2% | – | –
2 | Cc1cc2oc(=O)cc(CN3CCOCC3)c2c(C)c1Cl | 44.4% | 29.1 µM [rising, single point] | 0.259 µM [rising, full curve]
3 | N#CCC(=O)Nc1ccc(C(=O)OCC(=O)NCc2ccc3c(c2)OCO3)cc1 | -9.81% | – | 1.3 µM [rising, full curve]
4 | CC1(C)Cc2c(c(N3CCOCC3)nc3sc(C(=O)Nc4ccc(Cl)cc4)c(N)c23)CO1 | 0.952% | – | –
5 | CCN1CCN(c2ccc(S(=O)(=O)N3CCOCC3)cc2NC(=O)c2ccccc2SC)CC1 | -6.94% | – | –
6 | COc1ccc(CCNC(=O)c2cc(C3CC3)nc3c2cnn3C(C)C)cc1OC | -13.3% | – | 14.6 µM [falling, partial curve, poor fit]
7 | Cc1ccc(S(=O)(=O)N2CCC(Oc3cccc(C(F)(F)F)c3)CC2)cc1 | 15.9% | – | –
8 | CCOc1ccc(C(=O)N/N=C/c2cc(Cl)ccc2[N+](=O)[O-])cc1 | – | – | 0.92 µM [rising, full curve]
9 | Cc1cccc(C)c1NC(=O)CNC(=O)C1CC(=O)N(Cc2ccccc2)C1 (centres undefined) | – | – | 0.116 µM [rising, full curve, poor fit]
10 | O=C(Oc1ccc2c(=O)c(Cl)coc2c1)c1ccncc1 | -11.3% | – | 3.26 µM [falling, single point]
11 | O=C(NCc1ccccc1)C1CCCN1S(=O)(=O)c1ccc(F)cc1 (centres undefined) | -14.4% | – | –
12 | O=C(c1ccccc1C(=O)N(c1ccccc1)c1ccccc1)N1CCCCC1 | -13.6% | – | –
13 | O=C(NCc1ccccc1)c1ccc(CSc2ccccc2)o1 | 15.8% | – | 32.6 µM [rising, single point]
14 | CCC(=O)N1CCC(c2ccc(OC)cc2)=N1 | – | 0.13 µM [rising, full curve, poor fit] | –
15 | O=C(CCn1c(=S)[nH]c2ccccc2c1=O)Nc1cccc(Cl)c1 | 58.5% | – | 5.8 µM [falling, single point]
16 | CCOc1ccc(N2CC(C(=O)NC3CCCC3)CC2=O)cc1 (centres undefined) | 1.9% | – | 0.231 µM [rising, full curve, poor fit]
17 | COc1ccc(Nc2nc(-c3ccc4c(c3)NC(=O)CO4)cs2)cc1 | 94.1% | – | –
18 | NC(=O)c1cc(-c2ccccc2)nc(N2CCOCC2)n1 | 35.6% | 25.9 µM [rising, single point] | –
19 | O=C(NC(=O)c1ccccc1)Nc1ccccc1 | – | 1.84 µM [falling, partial curve] | 6.51 µM [falling, single point]
20 | O=C(NC(=S)Nc1ccc(Br)cn1)c1cccs1 | – | 0.731 µM [rising, single point] | 0.58 µM [falling, full curve]
21 | O=C(COC(=O)c1ccco1)NCc1ccco1 | 5.19% | – | –
22 | COc1ccc(CCNC(=O)CCC(=O)N2CC(C)Oc3ccc(Cl)cc32)cc1OC (centres undefined) | -17.9% | – | –

Row | Structure (SMILES) | cell number change | AC50 [1] | AC50 [2]
23 | CC(=O)c1cccc(NC(=S)N2CCN(S(C)(=O)=O)CC2)c1 | -1.7% | – | 20.6 µM [rising, single point]
24 | COc1ccc2cc(/C=N/NC(=O)CN(c3ccccc3)S(=O)(=O)c3ccccc3)c(Cl)nc2c1 | 11% | – | 2.06 µM [rising, full curve]
25 | COC(=O)c1cccc(NC(=O)CSc2nnc(COc3cccc(C)c3)n2C)c1 | -13.3% | 0.146 µM [falling, full curve, poor fit] | 0.058 µM [falling, full curve, poor fit]
26 | CS(=O)(=O)N(CC(=O)N1CCN(Cc2ccccc2)CC1)Cc1ccccc1 | -20% | 7.31 µM [falling, single point] | 6.51 µM [falling, single point]
27 | O=C(CSc1nc2ccccc2c(=O)n1-c1ccc(F)c(Cl)c1)Nc1cccc(S(=O)(=O)N2CCOCC2)c1 | 13.7% | – | 6.51 µM [rising, single point]
28 | Cc1ccc(C(=O)NC2CCN(C(=O)Nc3ccc(F)cc3)CC2)cc1 | – | – | 0.116 µM [rising, partial curve, poor fit]
29 | COc1cc(/C=N/NC(=O)NC23CC4CC(CC(C4)C2)C3)ccc1O | -36.1% | 0.411 µM [falling, full curve, poor fit] | –
30 | CN(C)CCNC(=O)c1cccc(S(=O)(=O)Nc2ccc(F)cc2)c1 | -3.09% | – | 0.146 µM [falling, single point]
31 | COc1ccc(CCN2CN(S(=O)(=O)c3ccc(OC)cc3)c3nc4ccccc4nc32)cc1 | 16.7% | – | 1.84 µM [rising, partial curve]
32 | CN1c2ccccc2N(C)C1(C)c1cccc2ccccc12 | 12% | – | 4.61 µM [rising, full curve, poor fit]
33 | Fc1ccc(-n2c(-c3ccco3)nc3nc4ccccc4nc32)cc1 | -9.03% | – | 0.731 µM [rising, full curve]
34 | O=C(O)C1CCCCN1S(=O)(=O)c1ccccc1 (centres undefined) | -55.4% | 3.66 µM [falling, full curve] | 20.6 µM [falling, single point]
35 | C=CCNC(=O)CCNS(=O)(=O)c1ccc(Br)cc1 | -1.94% | – | 0.58 µM [falling, partial curve, poor fit]
36 | CCCCCN1C2=NCCN2c2ccccc21 | 22% | – | 32.6 µM [rising, single point]
37 | O=C(NC1=NCCS1)c1ccccc1 | 20.4% | – | –
38 | COc1ccc(NC(=O)Nc2ccc([N+](=O)[O-])cc2)cn1 | 24.6% | – | 0.116 µM [rising, single point]
39 | O=C(CSCc1cnn(-c2ccccc2)c1-n1cccc1)NCc1ccc2c(c1)OCO2 | 12.1% | – | 0.103 µM [rising, full curve, poor fit]
40 | O=C(c1cccc(F)c1)N1CCN(C2CCCCC2)CC1 | -52.6% | 29.1 µM [falling, single point] | –
41 | COc1ccc(F)cc1S(=O)(=O)NCCN1CCOCC1 | -14.9% | – | 6.51 µM [falling, single point]
42 | COc1ccc(S(=O)(=O)N(CC(=O)N2CCN(c3ccccc3OC)CC2)c2ccccc2)cc1 | -19.9% | – | –
43 | Cc1cccc(NC(=O)CCc2nc3sc4c(c3c(=O)[nH]2)CCCC4)c1 | -0.958% | – | 2.59 µM [falling, full curve]
44 | O=C(CCn1cccc1)Nc1cccc(F)c1 | -10.7% | – | 1.16 µM [falling, full curve, poor fit]

Row | Structure (SMILES) | cell number change | AC50 [1] | AC50 [2]
45 | N#C/C(=C\c1ccncc1)c1ccccn1 | 13.9% | – | 1.3 µM [rising, full curve]
46 | Cc1ccc2c(C)c(C(=O)N(Cc3ccccc3)C3CCS(=O)(=O)C3)oc2c1 (centres undefined) | -22.2% | – | 18.4 µM [falling, single point]
47 | CCOC(=O)c1oc2ccccc2c1CSc1nnc(-c2ccco2)o1 | -21.8% | – | –
48 | O=C1c2cccc3c([N+](=O)[O-])ccc(c23)C(=O)N1c1ccccn1 | -91.2% | – | 29.1 µM [falling, single point]
49 | Cn1c(NCc2cccs2)nc2ccccc21 | 11.7% | – | 0.82 µM [falling, full curve]
50 | c1ccc(CN2CCN(c3nc(-c4ccccc4)nc4ccccc34)CC2)cc1 | 26.5% | 0.731 µM [rising, full curve, poor fit] | –
51 | O=C(CN1C(=O)C2C3C=CC(C3)C2C1=O)NCc1ccccc1 (centres undefined) | -25% | – | 25.9 µM [falling, single point]
52 | CCN1CCN(CCCNC(=O)c2cn(CCOC)c(=O)c3c2c2ccccc2n3C)CC1 | -82.3% | 29.1 µM [falling, single point] | –
53 | Cc1ccccc1C(=O)Nn1cnc2ccccc2c1=O | -15.1% | – | 16.4 µM [falling, single point]
54 | COc1cc(/C=N/NC(=O)c2cccnc2)ccc1OS(=O)(=O)c1cc(C)ccc1C | 56.5% | 20.6 µM [rising, single point] | –
55 | CCOC(=O)c1c(-c2ccccc2)oc2ccc(O)c(CN(C)C)c12 | -15.6% | – | –
56 | NC(=O)c1cc([N+](=O)[O-])ccc1NCc1ccc(C(=O)O)cc1 | 13.6% | 6.51 µM [falling, single point] | 4.61 µM [rising, single point]
57 | Cc1ccccc1NC(=O)CSc1nnc2ccc(-c3cccnc3)nn12 | -47% | 29.1 µM [falling, single point] | 18.4 µM [rising, partial curve]
58 | CC(C)c1csc2nc3n(c(=O)c12)CCCCC3 | -47.2% | 29.1 µM [falling, single point] | 1.64 µM [falling, partial curve]
59 | O=c1[nH]c(/C=C/c2ccccn2)nc2ccccc12 | 6.61% | – | 29.1 µM [rising, single point]
60 | OC(CNCc1ccccc1)c1ccccc1 (centres undefined) | -47.4% | 25.9 µM [falling, single point] | 25.9 µM [falling, partial curve]
61 | CC(=O)c1sc(NC(=O)CS(=O)(=O)c2ccccc2)nc1C | 71% | 9.2 µM [rising, partial curve] | –
62 | CSc1ccc(C2c3[nH]c4ccccc4c3CCN2C(=O)c2cc(C)n(C)n2)cc1 (centres undefined) | -20.6% | – | 11.6 µM [falling, partial curve, poor fit]
63 | CCN1C/C(=C/c2ccc(OC)c(O)c2)C(=O)/C(=C/c2ccc(OC)c(O)c2)C1 | 5.95% | – | 2.06 µM [rising, partial curve]
64 | CCN1CCN(Cc2ccc(NC(=O)c3ccc(C)c(NC(=O)C(=O)c4c[nH]c5ccccc45)c3)cc2C(F)(F)F)CC1 | -26.5% and -15.2% | – | 1.46 µM [falling, partial curve]

Source: PubChem BioAssay AID2685 (National Center for Advancing Translational Sciences (NCATS), 2010)
